Assay results from PMC4183432, “Evidence of a Bacterial Receptor for Lysozyme: Binding of Lysozyme to the Anti-σ Factor RsiV Controls Activation of the ECF σ Factor σ^V” (PLoS Genetics, 2014).
Results are given in words; binding and its absence hold for the method and conditions named. For some assays here: Binding seen in cells or lysates may run through a third protein. Some binding calls cover weakened binding; strength is not graded here. Where a sequence is shown, tags or fusion partners need not be part of it. Each block holds one molecule with its values, some of them ahead of it.

Legend:
[1] = molecular target: T1, cleaved RsiV^6×His (B. subtilis) (UniProt O05403); test: pull-down; B. subtilis JLH548 producing RsiV-6×His protoplasted with HEW lysozyme (37°C, 45 min); supernatant batch purified on Ni resin; co-eluting band identified by N-terminal sequencing; only the binder purified
T1 sequence: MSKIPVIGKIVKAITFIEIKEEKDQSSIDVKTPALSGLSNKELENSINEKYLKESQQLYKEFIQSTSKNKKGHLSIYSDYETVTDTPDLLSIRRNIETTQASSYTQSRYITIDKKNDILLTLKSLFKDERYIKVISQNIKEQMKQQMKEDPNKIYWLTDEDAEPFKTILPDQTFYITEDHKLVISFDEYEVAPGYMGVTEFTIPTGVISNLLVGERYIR

GST-RsiV^59–285 = molecular target: T2, GST-RsiV^59–285 (B. subtilis, UniProt O05403 59-285); test: condition: 2 mg of mutanolysin applied to the column; pull-down; 2 mg purified GST-RsiV^59–285 on a Glutathione HiCap Matrix column in PBS-EW; 2 mg of HEW lysozyme, human lysozyme or mutanolysin applied; washed with PBS-EW, eluted with TNGT; SDS-PAGE; both purified
T2 construct: plasmid pKBW204 (pDEST15); source: E. coli BL21(DE3), purified (Glutathione HiCap Matrix); not shown: GST, N-terminal, kept
T2 sequence (looked up): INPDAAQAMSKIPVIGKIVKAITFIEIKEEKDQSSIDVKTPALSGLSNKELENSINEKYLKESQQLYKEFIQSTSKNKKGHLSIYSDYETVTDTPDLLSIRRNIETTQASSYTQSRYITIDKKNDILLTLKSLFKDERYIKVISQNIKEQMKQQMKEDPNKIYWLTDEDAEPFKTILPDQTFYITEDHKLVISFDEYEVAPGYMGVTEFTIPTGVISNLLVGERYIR

binding [1]: binds
Molecule: HEW lysozyme (from UniProt P00698 19-147) (enzyme)

binding (GST-RsiV^59–285): no binding
B1: mutanolysin (enzyme, UniProt P25310 78-294)
chain: DTSGVQGIDVSHWQGSINWSSVKSAGMSFAYIKATEGTNYKDDRFSANYTNAYNAGIIRGAYHFARPNASSGTAQADYFASNGGGWSRDNRTLPGVLDIEHNPSGAMCYGLSTTQMRTWINDFHARYKARTTRDVVIYTTASWWNTCTGSWNGMAAKSPFWVAHWGVSAPTVPSGFPTWTFWQYSATGRVGGVSGDVDRNKFNGSAARLLALANNTA
